In assay [1] the target is FLAG-CYLD wild type (human) (UniProt Q9NQC7). Briefly: affinity purification with mass spectrometry; FLAG-CYLD WT or ΔB-box purified with anti-FLAG from CYLD KO U2OS/NOD2 cell lysates, LC-MS/MS.
The next assay deals with T1, FLAG-CYLD ΔB-box (human) (UniProt Q9NQC7).
T1 sequence: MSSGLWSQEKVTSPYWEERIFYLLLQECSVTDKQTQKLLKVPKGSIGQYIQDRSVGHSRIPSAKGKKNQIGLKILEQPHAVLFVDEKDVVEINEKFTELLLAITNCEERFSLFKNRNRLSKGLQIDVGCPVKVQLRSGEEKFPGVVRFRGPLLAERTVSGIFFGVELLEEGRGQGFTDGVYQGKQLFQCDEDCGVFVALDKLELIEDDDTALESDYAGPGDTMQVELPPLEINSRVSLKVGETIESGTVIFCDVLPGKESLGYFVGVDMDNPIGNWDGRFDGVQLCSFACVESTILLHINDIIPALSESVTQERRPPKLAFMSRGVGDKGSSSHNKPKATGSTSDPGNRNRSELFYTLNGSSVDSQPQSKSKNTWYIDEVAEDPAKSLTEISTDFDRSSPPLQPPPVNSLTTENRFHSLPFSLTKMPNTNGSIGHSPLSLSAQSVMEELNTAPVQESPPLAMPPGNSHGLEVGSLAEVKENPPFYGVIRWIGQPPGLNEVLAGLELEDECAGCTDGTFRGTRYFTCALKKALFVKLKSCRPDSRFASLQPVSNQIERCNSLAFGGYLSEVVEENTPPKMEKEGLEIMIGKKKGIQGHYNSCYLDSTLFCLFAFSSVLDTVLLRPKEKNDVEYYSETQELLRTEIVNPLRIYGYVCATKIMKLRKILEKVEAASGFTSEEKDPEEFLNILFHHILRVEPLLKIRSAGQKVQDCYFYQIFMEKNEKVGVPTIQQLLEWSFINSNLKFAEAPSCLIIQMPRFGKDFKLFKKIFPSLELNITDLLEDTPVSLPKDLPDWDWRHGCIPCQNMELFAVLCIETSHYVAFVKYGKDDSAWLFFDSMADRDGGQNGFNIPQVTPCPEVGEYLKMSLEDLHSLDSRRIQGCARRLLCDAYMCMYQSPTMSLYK
The description is as above.

No constants are given. Whether binding was seen depends on the method and setting. Binding seen in cells or lysates may run through a third protein. A yes stands for co-enrichment or nearness to the bait. Other partners may have been found. For some of these results: Sequences can lack the tags named with a protein.

These results are taken from paper PMC5031558.

B1: SPATA2-like (SPATA2L) (protein, UniProt Q8IUW3 1-424)
chain: MGSSSLSEDYRQCLERELRRGRAGVCGDPSLRAVLWQILVEDFDLHGALQDDALALLTDGLWGRADLAPALRGLARAFELLELAAVHLYLLPWRKEFTTIKTFSGGYVHVLKGVLSDDLLLKSFQKMGYVRRDSHRLMVTALPPACQLVQVALGCFALRLECEILGEVLAQLGTSVLPAEELLQARRASGDVASCVAWLQQRLAQDEEPPPLPPRGSPAAYRAPLDLYRDLQEDEGSEDASLYGEPSPGPDSPPAELAYRPPLWEQSAKLWGTGGRAWEPPAEELPQASSPPYGALEEGLEPEPSAFSFLSLRRELSRPGDLATPESSAAASPRRIRAEGVPASAYRSVSEPPGYQAHSCLSPGALPTLCCDTCRQLHAAHCAALPACRPGHSLRVLLGDAQRRLWLQRAQMDTLLYNSPGARP
Take B1: in assay [1], the binding result was “binds”.

B2: TAK1 (protein, UniProt O43318 1-606)
chain: MSTASAASSSSSSSAGEMIEAPSQVLNFEEIDYKEIEVEEVVGRGAFGVVCKAKWRAKDVAIKQIESESERKAFIVELRQLSRVNHPNIVKLYGACLNPVCLVMEYAEGGSLYNVLHGAEPLPYYTAAHAMSWCLQCSQGVAYLHSMQPKALIHRDLKPPNLLLVAGGTVLKICDFGTACDIQTHMTNNKGSAAWMAPEVFEGSNYSEKCDVFSWGIILWEVITRRKPFDEIGGPAFRIMWAVHNGTRPPLIKNLPKPIESLMTRCWSKDPSQRPSMEEIVKIMTHLMRYFPGADEPLQYPCQYSDEGQSNSATSTGSFMDIASTNTSNKSDTNMEQVPATNDTIKRLESKLLKNQAKQQSESGRLSLGASRGSSVESLPPTSEGKRMSADMSEIEARIAATTAYSKPKRGHRKTASFGNILDVPEIVISGNGQPRRRSIQDLTVTGTEPGQVSSRSSSPSVRMITTSGPTSEKPTRSHPWTPDDSTDTNGSDNSIPMAYLTLDHQLQPLAPCPNSKESMAVFEQHCKMAQEYMKVQTEIALLLQRKQELVAELDQDEKDQQNTSRLVQEHKKLLDENKSLSTYYQQCKKQLEVIRSQQQKRQGTS
Turning to B2, the binding result (in assay [1]; with FLAG-CYLD ΔB-box (human)) was “binds” throughout.

B3: SPATA2 (endogenous) (protein, UniProt Q9UM82 1-520)
chain: MGKPSSMDTKFKDDLFRKYVQFHESKVDTTTSRQRPGSDECLRVAASTLLSLHKVDPFYRFRLIQFYEVVESSLRSLSSSSLRALHGAFSMLETVGINLFLYPWKKEFRSIKTYTGPFVYYVKSTLLEEDIRAILSCMGYTPELGTAYKLRELVETLQVKMVSFELFLAKVECEQMLEIHSQVKDKGYSELDIVSERKSSAEDVRGCSDALRRRAEGREHLTASMSRVALQKSASERAAKDYYKPRVTKPSRSVDAYDSYWESRKPPLKASLSLRKEPVATDVGDDLKDEIIRPSPSLLTMASSPHGSPDVLPPASPSNGPALLRGTYFSTQDDVDLYTDSEPRATYRRQDALRPDVWLLRNDAHSLYHKRSPPAKESALSKCQSCGLSCSSSLCQRCDSLLTCPPASKPSAFPSKASTHDSLAHGASLREKYPGQTQGLDRLPHLHSKSKPSTTPTSRCGFCNRPGATNTCTQCSKVSCDACLSAYHYDPCYKKSELHKFMPNNQLNYKSTQLSHLVYR
For the molecule B3, the binding result in assay [1] is “binds”.
